Over roughly 33,000 sequences, “E-score (-0.5 to 0.5)” has its median near -0.0014; the highest 2% begin near 0.25. This is one part of the list.
Target: T1, Cad1 (UniProt P24813)
T1 sequence: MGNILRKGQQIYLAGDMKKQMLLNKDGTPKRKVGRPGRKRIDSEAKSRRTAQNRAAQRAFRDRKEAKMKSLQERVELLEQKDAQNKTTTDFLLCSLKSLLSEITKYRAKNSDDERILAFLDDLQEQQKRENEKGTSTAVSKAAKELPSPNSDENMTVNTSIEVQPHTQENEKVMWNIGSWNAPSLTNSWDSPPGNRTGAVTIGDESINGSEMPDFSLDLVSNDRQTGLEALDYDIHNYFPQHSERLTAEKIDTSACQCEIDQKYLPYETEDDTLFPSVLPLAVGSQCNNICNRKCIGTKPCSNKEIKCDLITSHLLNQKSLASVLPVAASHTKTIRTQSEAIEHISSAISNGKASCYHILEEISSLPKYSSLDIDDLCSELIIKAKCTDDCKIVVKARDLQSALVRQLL
Experiment: PBM E-score (8-mer binding enrichment) (E-score (-0.5 to 0.5)); higher = stronger / more preferred TF binding
Conditions: protein concentration: 100 nM; construct: GST-full length
Method: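 Universal 'all 10-mer' protein binding microarrays (Agilent AMADID 015681) probed with GST-tagged S. cerevisiae TFs (full-length or DBD) made by in vitro transcription/translation (PURExpress), about 100-200 nM. Bound TF was detected with fluorescent anti-GST. Each ungapped 8-mer (which stands for itself and its reverse complement) is scored by the PBM enrichment score (E-score), a modified Wilcoxon-Mann-Whitney statistic from -0.5 to +0.5, computed with the Universal PBM Analysis Suite. Scale: above 0.35 generally sequence-specific binding.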

Row | Sequence | PBM E-score
1 | AAGTGTAG | 0.0989
2 | CGGTCCGA | -0.0178
3 | ACTCTTAC | 0.242
4 | CCGGTCGC | -0.0192
5 | GCCCAGAC | -0.201
6 | CCTGAAAA | 0.00612
7 | ATAGTGAT | 0.126
8 | GTGTACGA | 0.069
9 | ACAAGCAC | -0.0733
10 | AAAAAGTG | 0.0064
11 | GCGCCCTA | -0.141
12 | AGATTTGA | 0.088
13 | AGTCTTGC | -0.0173
14 | ATCTTTCA | 0.122
15 | GGGGTTCA | -0.191
16 | AGTCCAAC | -0.0448
17 | AATAAGTA | 0.138
18 | ATGTTAGG | -0.00995
19 | AGAAGTCT | -0.0724
20 | GAGATTCC | 0.0821
21 | AATCTTCC | -0.15
22 | ACACAAGA | 0.114

Row | Sequence | PBM E-score
23 | CTACATTA | -0.0325
24 | CACAAACA | 0.104
25 | AGAACACC | 0.0932
26 | CCATTAGA | -0.17
27 | ATCTAATG | -0.0144
28 | GAGTCCCA | -0.00076
29 | ATTACGAC | 0.0723
30 | CCCGTTCC | -0.171
31 | AAACTTAA | 0.171
32 | AGTTAGGG | -0.0104
33 | ATAACAGA | 0.0752
34 | ACCGACTG | -0.0999
35 | AACAAAAC | 0.231
36 | TACCGGCA | 0.116
37 | AAATCCTT | -0.0766
38 | AGGGTTGA | -0.0586
39 | CACCGGTC | -0.333
40 | CAGTAGGA | -0.256
41 | CTACCTCA | -0.107
42 | AGCGCTAG | 0.0563
43 | CATGTCCG | 0.0132
44 | ACGCAAGG | 0.19

Reformatted: results already given.
Row	Sequence	PBM E-score
9	ACAAGCAC	-0.0733
18	ATGTTAGG	-0.00995
26	CCATTAGA	-0.17
31	AAACTTAA	0.171

Following part:

Row | Sequence | PBM E-score
45 | AGACCGGG | -0.0747
46 | CCCGGGCA | -0.157
47 | CTCGAATC | -0.0398
48 | CACACGCG | 0.198
49 | CCGGACGA | 0.0645
50 | CCTTCAGA | -0.0779
51 | CTGTGGTA | 0.127
52 | AACCTTAC | 0.214
53 | GCCAGAAA | 0.15
54 | TACAACAA | 0.0832
55 | CGCTGAGA | 0.143
56 | TGCGTACA | 0.00948
57 | ACTGTCCG | 0.00138
58 | ATATAACA | 0.213
59 | CTATGAAA | 0.00882
60 | ACACTTCT | 0.029
61 | AGGGCGGC | -0.24
62 | ATTGATAG | 0.204
63 | CCATATAC | 0.0985
64 | CAGCAGTC | -0.032
65 | GACACCTA | -0.102
66 | GTCTGTTA | 0.106

Row | Sequence | PBM E-score
67 | AATCTACC | 0.0973
68 | GTTCATAA | -0.0578
69 | CTTAAGCC | 0.00617
70 | CCCAACGC | 0.0459
71 | ACTTCACA | -0.0424
72 | CAACATAC | 0.132
73 | GAGTGCGA | 0.0237
74 | ACGGCCCG | -0.0776
75 | AATTGTAC | 0.252
76 | ACAAGAAT | 0.00675
77 | CAGAGCAG | -0.00877
78 | ACTGTTTG | -0.0907
79 | AGTATACA | 0.207
80 | GACTTAAA | -0.115
81 | ACTCTCTC | -0.143
82 | ATGCGTTG | 0.127
83 | GGTTTAAC | 0.00796
84 | GCATCCAC | 0.0528
85 | CTGGGAAC | -0.0572
86 | ACTTTGGA | 0.038

— the supplement of paper PMC3334620
